Test results taken from BindingDB's records for PubMed 1930610 (Eli Lilly, 1991).

Target: T1, 5-hydroxytryptamine receptor 3A (Rattus norvegicus, UniProt P35563)
T1 sequence (P35563 whole entry): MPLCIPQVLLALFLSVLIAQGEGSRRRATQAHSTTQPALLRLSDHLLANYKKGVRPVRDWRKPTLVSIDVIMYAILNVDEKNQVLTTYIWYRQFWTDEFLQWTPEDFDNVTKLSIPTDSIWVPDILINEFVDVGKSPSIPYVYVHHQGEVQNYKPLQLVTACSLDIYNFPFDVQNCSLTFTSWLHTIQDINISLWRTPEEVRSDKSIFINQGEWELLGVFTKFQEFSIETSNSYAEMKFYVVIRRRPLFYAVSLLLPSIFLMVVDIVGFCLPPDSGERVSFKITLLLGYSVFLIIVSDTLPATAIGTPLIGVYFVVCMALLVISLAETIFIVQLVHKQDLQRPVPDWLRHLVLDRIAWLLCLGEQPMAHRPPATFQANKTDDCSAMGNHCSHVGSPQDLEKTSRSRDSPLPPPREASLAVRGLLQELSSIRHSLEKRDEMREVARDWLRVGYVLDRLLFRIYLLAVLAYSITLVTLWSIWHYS

With `CNCC[C@@H](Oc1ccc(C(F)(F)F)cc1)c1ccccc1` [Prozac] the Ki was greater than 10 µM.
